According to patent EP4428145A1, “ANTIBACTERIAL PEPTIDE” (Sumitomo Chemical Company, Limited, priority 2021, dated 2024):
At least one peptide structure holds a part that was inferred or is arguable (an end, a ring closure or a residue). Where no end group is shown, it is not given here.

Key:
Format in all cases: cell-based, Lactobacillus sakei
L. sakei [1] = experiment: Antimicrobial activity test on synthesized peptide, spot-on-lawn method (Experiment 5); set-up: key to Antimicrobial activity: -: Without antimicrobial activity; +: With antimicrobial activity; ++: With strong antimicrobial activity; +++: With very strong antimicrobial activity; conditions: for Antimicrobial activity: 1 mM in water; for antimicrobial activity against L. sakei: 1 mM
L. sakei [2] = experiment: Thermal stability test, antimicrobial activity after heat treatment, spot-on-lawn (Experiment 7); set-up: key to Antimicrobial activity after heat treatment / Antimicrobial activity, Untreated: -: Without antimicrobial activity; +: With antimicrobial activity; ++: With strong antimicrobial activity; +++: With very strong antimicrobial activity; conditions: for Antimicrobial activity, Untreated: sample without the heat process
Experimental: (§1) Like in Experiment 1A, antimicrobial activity of the antimicrobial peptide was evaluated by a spot-on-lawn method. As the test bacteria, Lactobacillus sakei (NBRC15893) was used. After overnight culturing, the test bacteria were mixed and diluted with Lactobacilli AOAC agar so as to achieve a density of 4×10^7 CFU/mL, and the resultant was spread over an MRS plate containing 2% agar. The test liquid was spotted on the test bacteria, and incubated overnight at 30°C. The size of the growth inhibition circle of L. sakei was evaluated as the antimicrobial activity.
(§2) Nisin A used in Examples was Nisin from Lactococcus lactis 2.5% (manufactured by Sigma-Aldrich corporation) that was used after concentration and purification. The details of nisin A are as described by J. C. Slootweg et al., J. Pept. Sci., 19, 692-699(2013). To 1 g of commercially available 2.5% nisin A (containing about 25 mg of nisin A), 25 mL of water was added, and the resultant was stirred for 15 minutes at room temperature. Centrifugation (15 minutes, 2500 rpm) was carried out to separate off the precipitate, and only the supernatant was transferred to another tube. To the resulting solution, 20 mL of dichloromethane was added. To collect the white precipitate that was present between the aqueous layer and the organic layer, the upper layer and the lower layer were removed. Another round of centrifugation (15 minutes, 2500 rpm) was carried out to remove, again, the upper layer and the lower layer. The intermediate layer that was sought after was dried in a reduced-pressure centrifuge and re-dissolved in 7.45 mL of water, and thereby a 1-mM purified Nisin product was obtained. The resulting purified product was used as nisin A in each stability test.
The test solution was subjected to heat treatment at 80°C for 10 minutes, or at 80°C for 30 minutes, or at 100°C for 10 minutes, or at 100°C for 30 minutes, or at 121°C for 15 minutes. By the same spot-on-lawn method as adopted in the above-mentioned antimicrobial activity test, the polypeptide was added in drops to form a growth inhibition circle of L. sakei, and thereby the antimicrobial activity of the polypeptide after heat treatment was evaluated. As a positive control (PC), culture supernatant of a nisin A-producing lactic acid bacterium (Lactococcus lactis ATCC-1 1454 strain) was used. A sample without the heat process was used as an untreated control.

L. sakei [3] = experiment: Wide pH-range stability test, antimicrobial activity after pH treatment, spot-on-lawn (Experiment 6); set-up: key to Antimicrobial activity after pH treatment / Antimicrobial activity, Untreated: -: Without antimicrobial activity; +: With antimicrobial activity; ++: With strong antimicrobial activity; +++: With very strong antimicrobial activity; conditions: for Antimicrobial activity after pH treatment: 30°C; for Antimicrobial activity, Untreated: untreated control prepared solely with 0.2% TFA aqueous solution
Experimental: as §1
Each peptide was redissolved and prepared in the following buffer; Sodium acetate-acetic acid (50 mM, pH4.0), Sodium phosphate (50 mM, pH7.4), glycine-NaOH (50 mM, pH10.0). The test solution thus prepared at the above-specified pH was incubated at 30°C. The duration of the incubation was 0 hours, 0.5 hours, 2 hours, 4 hours, 6 hours, and 24 hours, and at the completion of the incubation, TFA was added in a final concentration of 0.2%. […] By the same spot-on-lawn method as adopted in the above-mentioned antimicrobial activity test, the polypeptide was added in drops to form a growth inhibition circle of L. sakei, and thereby the antimicrobial activity of the polypeptide after pH treatment was evaluated. As a positive control (PC), culture supernatant of a nisin A-producing lactic acid bacterium (Lactococcus lactis ATCC-11454 strain) was used. A sample that was prepared solely with a 0.2% TFA aqueous solution was used as an untreated control.
as §2

## KIIRISKWS [part 3, KIIRISKWS]
L. sakei [1]
  Antimicrobial activity: +
L. sakei [1]; result in words
  antimicrobial activity against L. sakei: had antimicrobial activity
L. sakei [2]; 5 mM, 80°C 10 mm
  Antimicrobial activity after heat treatment: +
L. sakei [2]; 5 mM, 80°C 30 min
  Antimicrobial activity after heat treatment: +
L. sakei [2]; 5 mM, 100°C 10 min
  Antimicrobial activity after heat treatment: +
L. sakei [2]; 5 mM, 100°C 30 min
  Antimicrobial activity after heat treatment: +
L. sakei [2]; 5 mM, 121°C 15 min
  Antimicrobial activity after heat treatment: +
L. sakei [2]; 5 mM
  Antimicrobial activity, Untreated: +
L. sakei [3]; 5 mM, pH 4.0, 0 hr
  Antimicrobial activity after pH treatment: +
L. sakei [3]; 5 mM, pH 4.0, 0.5 hr
  Antimicrobial activity after pH treatment: +
L. sakei [3]; 5 mM, pH 4.0, 2 hr
  Antimicrobial activity after pH treatment: +
L. sakei [3]; 5 mM, pH 4.0, 4 hr
  Antimicrobial activity after pH treatment: +
L. sakei [3]; 5 mM, pH 4.0, 6 hr
  Antimicrobial activity after pH treatment: +
L. sakei [3]; 5 mM, pH 4.0, 24 hr
  Antimicrobial activity after pH treatment: +
L. sakei [3]; 5 mM, pH 7.4, 0 hr
  Antimicrobial activity after pH treatment: +
L. sakei [3]; 5 mM, pH 7.4, 0.5 hr
  Antimicrobial activity after pH treatment: +
L. sakei [3]; 5 mM, pH 7.4, 2 hr
  Antimicrobial activity after pH treatment: +
L. sakei [3]; 5 mM, pH 7.4, 4 hr
  Antimicrobial activity after pH treatment: +
L. sakei [3]; 5 mM, pH 7.4, 6 hr
  Antimicrobial activity after pH treatment: +
L. sakei [3]; 5 mM, pH 7.4, 24 hr
  Antimicrobial activity after pH treatment: +
L. sakei [3]; 5 mM, pH 10.0, 0 hr
  Antimicrobial activity after pH treatment: +
L. sakei [3]; 5 mM, pH 10.0, 0.5 hr
  Antimicrobial activity after pH treatment: +
L. sakei [3]; 5 mM, pH 10.0, 2 hr
  Antimicrobial activity after pH treatment: +
L. sakei [3]; 5 mM, pH 10.0, 4 hr
  Antimicrobial activity after pH treatment: +
L. sakei [3]; 5 mM, pH 10.0, 6 hr
  Antimicrobial activity after pH treatment: +
L. sakei [3]; 5 mM, pH 10.0, 24 hr
  Antimicrobial activity after pH treatment: +
L. sakei [3]; 5 mM
  Antimicrobial activity, Untreated: +

## KIIRISKWSYYNTKTKK [part 1, K11R1SKWSYYNTKTKK]
L. sakei [1]
  Antimicrobial activity: ++
L. sakei [1]; result in words
  antimicrobial activity compared with polylysine: antimicrobial activity at a similar level to that of polylysine
  antimicrobial activity against L. sakei: had antimicrobial activity
L. sakei [2]; 1 mM, 80°C 10 mm
  Antimicrobial activity after heat treatment: ++
L. sakei [2]; 1 mM, 80°C 30 min
  Antimicrobial activity after heat treatment: ++
L. sakei [2]; 1 mM, 100°C 10 min
  Antimicrobial activity after heat treatment: ++
L. sakei [2]; 1 mM, 100°C 30 min
  Antimicrobial activity after heat treatment: ++
L. sakei [2]; 1 mM, 121°C 15 min
  Antimicrobial activity after heat treatment: ++
L. sakei [2]; 1 mM
  Antimicrobial activity, Untreated: ++
L. sakei [3]; 1 mM, pH 4.0, 0 hr
  Antimicrobial activity after pH treatment: ++
L. sakei [3]; 1 mM, pH 4.0, 0.5 hr
  Antimicrobial activity after pH treatment: ++
L. sakei [3]; 1 mM, pH 4.0, 2 hr
  Antimicrobial activity after pH treatment: ++
L. sakei [3]; 1 mM, pH 4.0, 4 hr
  Antimicrobial activity after pH treatment: ++
L. sakei [3]; 1 mM, pH 4.0, 6 hr
  Antimicrobial activity after pH treatment: ++
L. sakei [3]; 1 mM, pH 4.0, 24 hr
  Antimicrobial activity after pH treatment: ++
L. sakei [3]; 1 mM, pH 7.4, 0 hr
  Antimicrobial activity after pH treatment: ++
L. sakei [3]; 1 mM, pH 7.4, 0.5 hr
  Antimicrobial activity after pH treatment: ++
L. sakei [3]; 1 mM, pH 7.4, 2 hr
  Antimicrobial activity after pH treatment: ++
L. sakei [3]; 1 mM, pH 7.4, 4 hr
  Antimicrobial activity after pH treatment: ++
L. sakei [3]; 1 mM, pH 7.4, 6 hr
  Antimicrobial activity after pH treatment: ++
L. sakei [3]; 1 mM, pH 7.4, 24 hr
  Antimicrobial activity after pH treatment: ++
L. sakei [3]; 1 mM, pH 10.0, 0 hr
  Antimicrobial activity after pH treatment: ++
L. sakei [3]; 1 mM, pH 10.0, 0.5 hr
  Antimicrobial activity after pH treatment: ++
L. sakei [3]; 1 mM, pH 10.0, 2 hr
  Antimicrobial activity after pH treatment: ++
L. sakei [3]; 1 mM, pH 10.0, 4 hr
  Antimicrobial activity after pH treatment: ++
L. sakei [3]; 1 mM, pH 10.0, 6 hr
  Antimicrobial activity after pH treatment: ++
L. sakei [3]; 1 mM, pH 10.0, 24 hr
  Antimicrobial activity after pH treatment: ++
L. sakei [3]; 1 mM
  Antimicrobial activity, Untreated: ++

## YYADNSAIMSTLGHTVVNGWVEHFPY [part 2, YYADNSA1MSTLGHTVVNGWVEHFPY]
L. sakei [1]
  Antimicrobial activity: -

## YYNTKTKKYYADNSAIMSTLGHTVVNGWVEHFPY [part 4]
L. sakei [1]
  Antimicrobial activity: -
